# Measurements taken from PubChem BioAssay AID504444 (National Center for Advancing Translational Sciences (NCATS), 2011).
# Hit rate of the full screen: of about 360,000 compounds, about 7,500 (2.1%) were called active. Inconclusive results, whose numbers are uncertain, are shown with a selection of clear calls. Calls come from the whole dose curve; as a rule, active = well fitted inhibition curve with a large enough effect; inconclusive = small, poorly fitted or top-dose-only effect, or effect the other way; inactive = flat fitted curve, though single readings scatter. Potencies of inconclusive entries are doubtful fits and often do not repeat.
# Test: Nrf2 qHTS screen for inhibitors; note: nearly all actives have a fitted effect of over 60% in size
# Settings: A549 ARE-Fluc reporter, luciferase luminescence, 18-24 h; series mostly up to 46 µM
# How it was run: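 A549 ARE_Fluc cells (5000/well, 5% FBS OPTI-MEM) pre-incubated 2 h, then treated with compounds 18-24 h at 37C/5% CO2 in concentration-response. CellTiter-Fluor viability read first; BugLite luciferase luminescence after 15 min at room temperature gives Nrf2 activity.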
# Potency is the fitted concentration of half-maximal effect.
row,SMILES,Potency
1,COC(=O)C1=C(C)Nc2sc(C(N)=O)c(N)c2C1c1ccncc1 (configuration not stated),"inconclusive: 29.1 µM [activator, single point]"
2,COc1ccc(-c2ccc3ncnc(N(C)Cc4csc(C)n4)c3c2)cc1OC,active: 3.66 µM
3,O=C(Nc1ccccc1-c1ccccc1)C1CCCN(c2ncccn2)C1 (configuration not stated),inactive
4,O=C(NC(c1ccccc1)c1ccccc1)c1ccccc1,"inconclusive: 2.91 µM [activator, partial curve, poor fit]"
5,CN(C)c1ccc(N/C=C/C(=O)C(C)(C)C)cc1,"inconclusive: 23.1 µM [activator, single point]"
6,Cn1c(=O)n(C)c2cc(CNCc3ccccc3Cl)ccc21,inactive
7,COc1cccc(NC(=O)CN(C)C(=O)C(Sc2ccccc2)c2ccccc2)c1 (configuration not stated),"inconclusive: 20.6 µM [falling, single point]"
8,CCCSc1oc(-c2ccco2)nc1S(=O)(=O)c1ccc(C)cc1,inactive
9,CC(C)(C)c1ccc(-c2nnc(NC(=O)c3ccccc3)s2)cc1,"inconclusive: 2.59 µM [activator, full curve, poor fit]"
10,Cc1ccc(N(Cc2ccc([N+](=O)[O-])cc2)C(=O)c2ccco2)cc1,"inconclusive: 23.1 µM [falling, single point]"
11,O=C(NC1CCCCC1)c1ccc(S(=O)(=O)c2ccccc2)cc1,"inconclusive: 18.4 µM [falling, single point]"
12,CC(C)Oc1ccc(C(=O)NCCNC(=O)c2ccco2)cc1,"inconclusive: 23.1 µM [activator, single point]"
13,CC(=O)NC(c1ccco1)c1ccc2cccnc2c1O (configuration not stated),active: 16.4 µM
14,COc1ccc(-n2c(SCC(=O)Nc3ccc(Br)cc3)nc(O)cc2=O)cc1,inactive
15,CC(=O)c1csc(Nc2ccccc2Cl)n1,"inconclusive: 5.17 µM [activator, partial curve, poor fit]"
16,O=C(NCc1ccc2c(c1)OCO2)c1ccc2c(c1)OCO2,"inconclusive: 29.1 µM [activator, single point]"
17,O=[N+]([O-])c1cc([N+](=O)[O-])c2cc3ccccc3nc2c1,inactive
18,COc1ccc(NC(=O)C(Sc2ccccc2)c2ccccc2)c(OC)c1 (configuration not stated),"inconclusive: 13 µM [falling, partial curve]"
19,O=C1c2ccccc2C(=O)N1CSc1nnc(Nc2ccccc2)s1,inactive
20,O=C(c1ccc2c(c1)[nH]c(=S)n1c3ccccc3nc21)N1CCN(c2cccc(Cl)c2)CC1,"inconclusive: 29.1 µM [falling, single point]"
21,CC(C)(C)CC(=O)Nc1ccc(Nc2ccccc2)cc1,"inconclusive: 0.0146 µM [activator, full curve, poor fit]"
22,COc1ccc(/C=C(/NC(=O)c2ccco2)C(=O)N2CCCCC2)cc1,inactive
23,COC(=O)c1ccc(C2C(Oc3ccc(OC)cc3)C(=O)N2CCc2ccc(F)cc2)cc1 (configuration not stated),"inconclusive: 25.9 µM [falling, partial curve]"

# Reprinted from above, 3 compounds:
row,SMILES,Potency
17,O=[N+]([O-])c1cc([N+](=O)[O-])c2cc3ccccc3nc2c1,inactive
18,COc1ccc(NC(=O)C(Sc2ccccc2)c2ccccc2)c(OC)c1 (configuration not stated),"inconclusive: 13 µM [falling, partial curve]"
19,O=C1c2ccccc2C(=O)N1CSc1nnc(Nc2ccccc2)s1,inactive

# Remaining list, next part.

row,SMILES,Potency
1,COc1ccccc1NC(=O)CSc1nnc(C)n1CCc1ccccc1,inactive
2,CC(C)C[C@H](NC(=O)c1[nH]cnc1C(=O)N[C@@H](Cc1ccccc1)C(=O)OCc1ccccc1)C(=O)OC(C)(C)C,"inconclusive: 29.1 µM [falling, single point]"
3,Cc1ccc(NS(=O)(=O)c2sc3ccc(Cl)cc3c2C)cc1,"inconclusive: 29.1 µM [falling, single point]"
4,O=C(CSc1ccc2ccccc2c1Br)Nc1cccc(S(=O)(=O)NC2=NCCCCC2)c1,"inconclusive: 16.4 µM [falling, single point]"
5,Cc1ccc(C(=O)NC(C)c2ccc(C)c(C)c2)s1 (configuration not stated),"inconclusive: 29.1 µM [falling, single point]"
6,COc1ccccc1C(=O)OCc1cc(=O)n2c(C)csc2n1,"inconclusive: 25.9 µM [activator, partial curve]"
7,C=CCN(CC=C)S(=O)(=O)c1ccc(NC(=S)NC(=O)C2CC2)cc1,inactive
8,O=c1oc2ccccc2c(NCc2ccccc2)c1[N+](=O)[O-],"inconclusive: 20.6 µM [falling, single point]"
9,Cc1cccc(N2CCN(S(=O)(=O)c3ccc4c(c3)CCC(=O)N4)CC2C)c1 (configuration not stated),"inconclusive: 29.1 µM [falling, partial curve, poor fit]"
10,Cc1ccc(S(=O)(=O)Nc2ccc(O)c(Sc3ncn[nH]3)c2)cc1,inactive
11,O=C(CCn1cnc2ccccc2c1=O)Nc1ccc(S(=O)(=O)N2CCCCC2)cc1,"inconclusive: 29.1 µM [falling, single point]"
12,Cc1cc(OCc2cc(C(=O)NCc3csc(C(C)C)n3)no2)cc(C)c1Cl,"inconclusive: 20.6 µM [falling, single point]"
13,COc1ccc(N2CCN(C(=O)CC(C)S(=O)(=O)c3ccc4c(c3)NC(=O)CO4)CC2)cc1 (configuration not stated),"inconclusive: 29.1 µM [falling, single point]"
14,CCc1sc(C(=O)N2CCc3ccccc32)cc1C,"inconclusive: 5.8 µM [activator, full curve]"
15,O=c1c2cccc3c2c(nn1CN1CCOCC1)-c1ccccc1-3,active: 3.66 µM
16,Cc1ccc(-c2csc3nc(C)n(N)c(=O)c23)o1,"inconclusive: 18.4 µM [activator, single point]"
17,COc1ccccc1CNCC(O)Cn1c2ccccc2c2ccccc21 (configuration not stated),inactive
18,O=C(CCSc1nc(-c2ccc3c(c2)OCO3)cc(C(F)(F)F)n1)NCc1ccccc1,"inconclusive: 14.6 µM [falling, partial curve, poor fit]"
19,O=C(C1CCCN(S(=O)(=O)c2cccc3nonc23)C1)N1CCN(c2ccccc2)CC1 (configuration not stated),"inconclusive: 32.6 µM [falling, partial curve, poor fit]"
20,Cc1cc(C)cc(Nc2ccc(C(=O)O)cc2[N+](=O)[O-])c1,"inconclusive: 23.1 µM [falling, partial curve, poor fit]"
21,COc1ccccc1CNC(=O)c1cccc(NC(=O)c2ccccc2)c1,"inconclusive: 23.1 µM [falling, single point]"
22,COc1ccc2c(c1OC)C(=O)OC2Nc1nc(-c2ccc([N+](=O)[O-])cc2)cs1 (configuration not stated),"inconclusive: 18.4 µM [activator, single point]"
23,Cc1cc(C)nc(NCC(O)CNc2ccccc2Cl)n1 (configuration not stated),"inconclusive: 11.6 µM [falling, partial curve]"

row,SMILES,Potency
1,Cc1ccc(-c2nc(-c3ccncc3)no2)cc1,"inconclusive: 5.17 µM [activator, partial curve]"
2,Cc1c(Cl)cccc1-n1ncc(C(=O)NC2CCCC2)c1C1CCN(C(=O)OC(C)(C)C)CC1,"inconclusive: 13 µM [falling, partial curve, poor fit]"
3,Cn1cccc1C(=O)NC(=O)CSc1nc2ccccc2s1,"inconclusive: 0.0046 µM [activator, full curve, poor fit]"
4,Cc1ccc(NC(=O)N2CCN3CCCCC3C2)cc1C (configuration not stated),"inconclusive: 10.3 µM [activator, partial curve, poor fit]"
5,Cc1ccc(C(C)C)c(OCC(=O)Nc2cccc(S(=O)(=O)NC3=NCCCCC3)c2)c1,"inconclusive: 23.1 µM [falling, single point]"
6,COc1ccccc1/C=C/C=N/NC(=O)Cc1cccs1,"inconclusive: 2.91 µM [activator, single point]"
7,CC(=O)Cc1nsc(Nc2ccc(F)cc2)n1,"inconclusive: 5.17 µM [activator, partial curve, poor fit]"
8,CCOc1ccc(-c2cc3cc(OC)c(OC)cc3c(C)n2)cc1,inactive
9,Cc1ccccc1OCC(=O)Nc1ccc2c(c1)n(C)c(=O)n2C,"inconclusive: 16.4 µM [falling, partial curve]"
10,CC(Oc1ccc(C#N)cc1)C(=O)N1CC=C(c2ccccc2)CC1 (configuration not stated),"inconclusive: 18.4 µM [falling, single point]"
11,CC[C@@]1(C(=O)OC)N[C@H](CN(C)C(=O)Nc2ccc(C(F)(F)F)cc2)[C@@H]2C(=O)N(Cc3ccccc3)C(=O)[C@@H]21,inactive
12,CO/N=C/c1ccc(N2CCN(C(=O)c3cccc(C(F)(F)F)c3)CC2)c([N+](=O)[O-])c1,"inconclusive: 16.4 µM [falling, partial curve, poor fit]"
13,Cc1ccc(S(=O)(=O)N2CCOCC2)cc1NC(=O)CSc1nnc(C2CC2)n1C1CC1,inactive
14,COc1cc(Cl)c(NS(=O)(=O)c2cc3[nH]c(=O)c(=O)[nH]c3cc2C)c(OC)c1,"inconclusive: 25.9 µM [activator, partial curve, poor fit]"
15,COc1cccc(C(=O)NC2=NC(c3ccccc3F)CC(=O)N2)c1 (configuration not stated),inactive
16,Oc1c(CN2CCCC2)cc(COCc2ccccc2)c2cccnc12,active: 16.4 µM
17,COc1cc(C#N)ccc1OCC(=O)Nc1cccc(S(=O)(=O)N2CCCC2)c1,"inconclusive: 29.1 µM [falling, single point]"
18,COC(=O)c1ccc(-c2c(-c3ccccc3)ncc3cc(F)ccc23)cc1,"inconclusive: 18.4 µM [activator, partial curve, poor fit]"
19,CCC(C)N(C(=O)c1csnn1)C(C(=O)NC1CCCC1)c1c(F)cccc1Cl (configuration not stated),"inconclusive: 29.1 µM [activator, single point]"
20,C/C(=N\NC(=O)c1cc(-c2cccnc2)nc2ccccc12)c1ccc(O)cc1O,active: 14.6 µM
21,Cc1csc2nc(CCNS(=O)(=O)c3cccs3)cn12,"inconclusive: 14.6 µM [activator, partial curve]"
